# Reference: the supplement of paper PMC12823440, “Inhibitors supercharge kinase turnover through native proteolytic circuits” (Nature, 2025)
# Chains of the proteins cited; added tags and fusions are not shown. Lines headed by an entry give the natural chain unless they say otherwise; changes in a name come on top.
# UniProt P00519, whole entry: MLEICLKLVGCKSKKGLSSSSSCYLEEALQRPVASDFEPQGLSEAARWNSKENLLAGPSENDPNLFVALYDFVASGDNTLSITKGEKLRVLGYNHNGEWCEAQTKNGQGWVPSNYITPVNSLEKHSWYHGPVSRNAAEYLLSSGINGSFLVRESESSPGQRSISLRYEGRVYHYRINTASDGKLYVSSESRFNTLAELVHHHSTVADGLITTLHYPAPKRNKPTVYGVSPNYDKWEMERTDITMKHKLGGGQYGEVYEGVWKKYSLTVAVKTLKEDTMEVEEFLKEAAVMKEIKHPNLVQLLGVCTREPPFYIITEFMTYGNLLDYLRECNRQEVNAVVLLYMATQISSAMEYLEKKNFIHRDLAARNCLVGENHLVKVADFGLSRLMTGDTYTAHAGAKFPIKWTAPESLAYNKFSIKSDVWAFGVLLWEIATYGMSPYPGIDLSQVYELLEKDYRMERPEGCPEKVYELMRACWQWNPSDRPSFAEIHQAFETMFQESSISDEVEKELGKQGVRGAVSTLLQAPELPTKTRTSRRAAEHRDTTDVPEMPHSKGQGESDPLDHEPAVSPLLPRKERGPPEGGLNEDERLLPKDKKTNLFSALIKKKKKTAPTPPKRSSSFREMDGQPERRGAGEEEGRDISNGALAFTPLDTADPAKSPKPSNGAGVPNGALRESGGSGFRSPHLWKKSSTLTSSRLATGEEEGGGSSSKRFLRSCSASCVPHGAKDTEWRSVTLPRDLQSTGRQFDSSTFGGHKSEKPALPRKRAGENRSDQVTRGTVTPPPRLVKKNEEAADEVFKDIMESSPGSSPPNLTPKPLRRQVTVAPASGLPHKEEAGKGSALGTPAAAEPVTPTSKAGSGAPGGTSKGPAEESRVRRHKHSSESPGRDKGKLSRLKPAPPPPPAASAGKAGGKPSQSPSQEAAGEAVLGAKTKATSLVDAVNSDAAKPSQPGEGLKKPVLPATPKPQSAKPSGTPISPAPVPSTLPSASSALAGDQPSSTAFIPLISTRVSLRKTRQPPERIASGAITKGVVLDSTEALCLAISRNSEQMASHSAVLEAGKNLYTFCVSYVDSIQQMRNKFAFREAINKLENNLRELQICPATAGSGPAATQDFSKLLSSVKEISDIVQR
# UniProt P10398: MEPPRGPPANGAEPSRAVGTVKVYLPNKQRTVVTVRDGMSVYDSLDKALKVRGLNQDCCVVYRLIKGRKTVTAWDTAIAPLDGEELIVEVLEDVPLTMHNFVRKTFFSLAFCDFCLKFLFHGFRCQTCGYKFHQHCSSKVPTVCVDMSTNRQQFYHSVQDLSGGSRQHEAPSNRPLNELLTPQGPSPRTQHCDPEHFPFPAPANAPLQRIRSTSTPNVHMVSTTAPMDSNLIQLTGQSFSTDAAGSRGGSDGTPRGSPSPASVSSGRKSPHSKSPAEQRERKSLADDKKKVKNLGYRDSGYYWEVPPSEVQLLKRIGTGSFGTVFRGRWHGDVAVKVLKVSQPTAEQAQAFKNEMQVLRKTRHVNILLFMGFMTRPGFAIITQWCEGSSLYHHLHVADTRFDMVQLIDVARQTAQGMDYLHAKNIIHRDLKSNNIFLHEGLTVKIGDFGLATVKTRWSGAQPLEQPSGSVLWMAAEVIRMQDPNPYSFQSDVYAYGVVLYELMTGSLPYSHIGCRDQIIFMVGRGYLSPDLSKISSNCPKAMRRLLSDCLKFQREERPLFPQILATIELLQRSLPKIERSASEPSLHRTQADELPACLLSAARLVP
# UniProt Q96GD4, whole entry: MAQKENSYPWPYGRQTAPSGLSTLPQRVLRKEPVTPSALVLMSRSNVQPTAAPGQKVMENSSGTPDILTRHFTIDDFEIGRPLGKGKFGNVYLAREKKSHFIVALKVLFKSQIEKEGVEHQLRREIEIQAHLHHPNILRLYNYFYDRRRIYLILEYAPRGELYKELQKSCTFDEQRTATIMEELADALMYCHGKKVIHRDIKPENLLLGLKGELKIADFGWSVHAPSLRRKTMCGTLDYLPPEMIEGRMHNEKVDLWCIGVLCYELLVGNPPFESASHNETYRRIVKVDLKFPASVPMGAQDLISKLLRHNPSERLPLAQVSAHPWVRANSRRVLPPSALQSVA
# UniProt Q9UQB9: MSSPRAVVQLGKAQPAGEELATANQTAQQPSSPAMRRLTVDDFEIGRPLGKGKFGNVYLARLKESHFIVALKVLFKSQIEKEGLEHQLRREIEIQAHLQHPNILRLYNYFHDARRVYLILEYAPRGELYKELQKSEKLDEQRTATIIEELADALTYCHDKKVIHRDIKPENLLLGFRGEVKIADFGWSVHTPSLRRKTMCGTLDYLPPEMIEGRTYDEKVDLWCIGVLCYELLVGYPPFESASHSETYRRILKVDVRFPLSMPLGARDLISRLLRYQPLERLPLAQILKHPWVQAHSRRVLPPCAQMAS
# UniProt P51813: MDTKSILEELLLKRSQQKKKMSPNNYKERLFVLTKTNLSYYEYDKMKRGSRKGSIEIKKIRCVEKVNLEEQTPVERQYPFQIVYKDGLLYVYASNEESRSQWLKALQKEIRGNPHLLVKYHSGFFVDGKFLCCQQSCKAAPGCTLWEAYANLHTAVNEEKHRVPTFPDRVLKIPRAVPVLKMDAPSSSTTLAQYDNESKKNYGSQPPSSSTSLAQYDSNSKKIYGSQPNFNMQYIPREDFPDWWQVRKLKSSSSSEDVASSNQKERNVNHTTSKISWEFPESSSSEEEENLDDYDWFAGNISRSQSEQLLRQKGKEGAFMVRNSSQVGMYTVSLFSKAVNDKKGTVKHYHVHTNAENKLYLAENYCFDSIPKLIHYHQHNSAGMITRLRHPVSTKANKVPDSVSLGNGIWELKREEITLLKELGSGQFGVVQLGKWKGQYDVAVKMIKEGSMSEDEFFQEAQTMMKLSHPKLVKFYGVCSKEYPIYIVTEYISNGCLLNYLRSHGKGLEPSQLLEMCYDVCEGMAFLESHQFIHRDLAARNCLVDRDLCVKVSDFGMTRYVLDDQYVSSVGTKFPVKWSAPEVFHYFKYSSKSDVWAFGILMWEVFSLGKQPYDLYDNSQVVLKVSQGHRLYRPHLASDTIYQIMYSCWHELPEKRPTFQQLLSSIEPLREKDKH
# UniProt Q06187: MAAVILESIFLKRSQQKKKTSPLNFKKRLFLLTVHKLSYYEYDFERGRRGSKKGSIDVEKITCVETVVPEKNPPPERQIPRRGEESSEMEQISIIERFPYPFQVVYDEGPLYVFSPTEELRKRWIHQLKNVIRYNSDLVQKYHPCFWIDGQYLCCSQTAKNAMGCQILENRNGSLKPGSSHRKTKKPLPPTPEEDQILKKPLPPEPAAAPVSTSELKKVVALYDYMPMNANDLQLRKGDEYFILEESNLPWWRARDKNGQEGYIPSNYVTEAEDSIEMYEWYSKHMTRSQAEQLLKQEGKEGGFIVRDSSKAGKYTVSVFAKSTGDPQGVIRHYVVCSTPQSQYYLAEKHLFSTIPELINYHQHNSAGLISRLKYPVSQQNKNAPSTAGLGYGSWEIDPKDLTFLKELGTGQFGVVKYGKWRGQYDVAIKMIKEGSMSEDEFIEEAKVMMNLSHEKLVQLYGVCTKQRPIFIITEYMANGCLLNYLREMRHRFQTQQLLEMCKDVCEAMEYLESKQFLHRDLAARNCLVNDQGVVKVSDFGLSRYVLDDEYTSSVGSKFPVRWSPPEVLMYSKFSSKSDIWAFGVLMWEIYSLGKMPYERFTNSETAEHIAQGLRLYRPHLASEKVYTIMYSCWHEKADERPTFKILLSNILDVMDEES
# UniProt Q9UQM7, whole entry: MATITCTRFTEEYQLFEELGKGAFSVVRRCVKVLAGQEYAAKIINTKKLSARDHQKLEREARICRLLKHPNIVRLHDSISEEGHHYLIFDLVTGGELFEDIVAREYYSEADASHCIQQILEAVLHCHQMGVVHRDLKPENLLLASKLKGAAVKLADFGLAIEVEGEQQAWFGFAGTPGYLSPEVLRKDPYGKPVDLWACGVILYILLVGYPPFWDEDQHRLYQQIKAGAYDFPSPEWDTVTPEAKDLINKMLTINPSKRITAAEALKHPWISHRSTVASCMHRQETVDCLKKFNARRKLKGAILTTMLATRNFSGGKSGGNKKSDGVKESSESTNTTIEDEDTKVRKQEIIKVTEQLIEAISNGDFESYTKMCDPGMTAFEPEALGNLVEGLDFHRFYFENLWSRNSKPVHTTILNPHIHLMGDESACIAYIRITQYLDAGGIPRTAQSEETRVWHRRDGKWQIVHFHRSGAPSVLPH
# UniProt Q13555: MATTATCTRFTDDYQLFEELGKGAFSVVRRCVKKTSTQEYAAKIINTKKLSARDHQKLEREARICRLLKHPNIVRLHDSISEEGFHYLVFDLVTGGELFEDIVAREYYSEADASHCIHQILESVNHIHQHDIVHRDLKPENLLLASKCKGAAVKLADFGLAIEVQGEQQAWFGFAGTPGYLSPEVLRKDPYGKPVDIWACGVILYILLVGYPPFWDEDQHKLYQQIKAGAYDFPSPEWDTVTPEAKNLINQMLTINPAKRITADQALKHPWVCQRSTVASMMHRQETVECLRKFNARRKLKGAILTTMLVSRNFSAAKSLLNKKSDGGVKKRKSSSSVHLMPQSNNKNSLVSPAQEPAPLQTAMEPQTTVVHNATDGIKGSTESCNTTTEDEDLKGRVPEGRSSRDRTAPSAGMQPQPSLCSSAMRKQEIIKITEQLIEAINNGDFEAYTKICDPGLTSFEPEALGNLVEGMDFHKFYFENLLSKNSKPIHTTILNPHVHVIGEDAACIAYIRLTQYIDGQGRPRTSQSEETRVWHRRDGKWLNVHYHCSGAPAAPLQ
# UniProt Q15131: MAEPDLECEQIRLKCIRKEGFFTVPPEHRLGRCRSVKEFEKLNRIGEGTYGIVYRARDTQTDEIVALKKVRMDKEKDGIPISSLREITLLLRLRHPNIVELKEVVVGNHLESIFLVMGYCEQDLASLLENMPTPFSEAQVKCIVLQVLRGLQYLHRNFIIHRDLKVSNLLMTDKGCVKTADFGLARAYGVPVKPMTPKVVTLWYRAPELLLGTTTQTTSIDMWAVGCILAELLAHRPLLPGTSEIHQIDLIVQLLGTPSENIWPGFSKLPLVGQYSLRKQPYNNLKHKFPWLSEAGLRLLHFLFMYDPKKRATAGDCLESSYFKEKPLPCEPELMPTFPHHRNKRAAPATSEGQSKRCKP
# UniProt Q00526: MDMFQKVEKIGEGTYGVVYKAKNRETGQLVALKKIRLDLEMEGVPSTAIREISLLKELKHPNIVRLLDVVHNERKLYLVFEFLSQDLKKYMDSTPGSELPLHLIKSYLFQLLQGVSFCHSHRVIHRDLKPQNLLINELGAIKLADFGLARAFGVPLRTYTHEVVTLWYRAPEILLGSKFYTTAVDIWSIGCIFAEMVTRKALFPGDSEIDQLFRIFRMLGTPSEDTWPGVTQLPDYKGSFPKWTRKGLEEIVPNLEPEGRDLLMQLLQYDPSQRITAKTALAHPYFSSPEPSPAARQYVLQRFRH
# UniProt P11802: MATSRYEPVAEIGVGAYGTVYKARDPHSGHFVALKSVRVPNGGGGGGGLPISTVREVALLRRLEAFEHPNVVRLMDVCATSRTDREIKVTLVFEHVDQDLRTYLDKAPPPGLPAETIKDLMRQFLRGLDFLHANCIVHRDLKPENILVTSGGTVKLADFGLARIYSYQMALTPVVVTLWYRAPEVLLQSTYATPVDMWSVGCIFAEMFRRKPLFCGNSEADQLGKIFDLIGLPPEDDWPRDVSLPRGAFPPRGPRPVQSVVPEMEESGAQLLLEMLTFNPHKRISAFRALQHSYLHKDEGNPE
# UniProt Q00535, whole entry, looked up: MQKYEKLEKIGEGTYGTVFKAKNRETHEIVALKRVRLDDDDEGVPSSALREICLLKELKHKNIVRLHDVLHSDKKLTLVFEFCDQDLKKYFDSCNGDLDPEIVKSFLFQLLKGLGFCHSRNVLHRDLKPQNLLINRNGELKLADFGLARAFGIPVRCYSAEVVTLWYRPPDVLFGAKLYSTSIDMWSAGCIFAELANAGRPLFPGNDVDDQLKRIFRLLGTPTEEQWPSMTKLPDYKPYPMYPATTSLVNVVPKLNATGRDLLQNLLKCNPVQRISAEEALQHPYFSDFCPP
# UniProt Q00534, whole entry: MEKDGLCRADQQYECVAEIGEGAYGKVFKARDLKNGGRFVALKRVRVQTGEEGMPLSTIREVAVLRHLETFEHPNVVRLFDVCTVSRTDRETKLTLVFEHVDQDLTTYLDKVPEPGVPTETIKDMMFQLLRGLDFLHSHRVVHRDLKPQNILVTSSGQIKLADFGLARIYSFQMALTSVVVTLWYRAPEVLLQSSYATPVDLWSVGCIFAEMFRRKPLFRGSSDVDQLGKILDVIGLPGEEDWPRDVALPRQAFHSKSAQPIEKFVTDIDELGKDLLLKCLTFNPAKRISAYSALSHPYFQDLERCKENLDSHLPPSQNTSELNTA
# Structures can show the parent of a compound that is named as a salt. The list shows a part of the results. Hit calls seldom repeat between salt and free forms of one compound.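 Kinases were expressed as nanoluciferase fusions in K562 cells and luminescence was read every 4 h between 2 and 18 h as percent of control, DMSO set to 100% and a positive control to 0%. A time point counts as decreased when the signal drops significantly (2 sigma). The hit call is the authors' own, does not follow from the count of time points alone, and its rule is not shown.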
# What was measured:
# Assay in all cases: kinase-Nluc reporter destabilization hit call (1 = scored as downregulated) (binary); higher = compound decreases kinase abundance
# Settings in all cases: K562; 2-18 h
# ABL1 = ABL1 (UniProt P00519)
# AKT1 = AKT1 (UniProt P31749)
# ALK = ALK (UniProt Q9UM73)
# ARAF = ARAF (UniProt P10398)
# AURKA = AURKA (UniProt O14965)
# AURKB = AURKB (UniProt Q96GD4)
# AURKC = AURKC (UniProt Q9UQB9)
# BLK = BLK (UniProt P51451)
# BMX = BMX (UniProt P51813)
# BRAF = BRAF (UniProt P15056)
# BRAF_V600E = system: BRAF_V600E
# BTK = BTK (UniProt Q06187)
# CAMK2A = CAMK2A (UniProt Q9UQM7)
# CAMK2G = CAMK2G (UniProt Q13555)
# CDK10 = CDK10 (UniProt Q15131)
# CDK2 = CDK2 (UniProt P24941)
# CDK3 = CDK3 (UniProt Q00526)
# CDK4 = CDK4 (UniProt P11802)
# CDK5 = CDK5 (UniProt Q00535)
# CDK6 = CDK6 (UniProt Q00534)
Structure (SMILES),kinase-Nluc reporter destabilization hit call (ABL1),kinase-Nluc reporter destabilization hit call (AKT1),kinase-Nluc reporter destabilization hit call (ALK),kinase-Nluc reporter destabilization hit call (ARAF),kinase-Nluc reporter destabilization hit call (AURKA),kinase-Nluc reporter destabilization hit call (AURKB),kinase-Nluc reporter destabilization hit call (AURKC),kinase-Nluc reporter destabilization hit call (BLK),kinase-Nluc reporter destabilization hit call (BMX),kinase-Nluc reporter destabilization hit call (BRAF),kinase-Nluc reporter destabilization hit call (BRAF_V600E),kinase-Nluc reporter destabilization hit call (BTK),kinase-Nluc reporter destabilization hit call (CAMK2A),kinase-Nluc reporter destabilization hit call (CAMK2G),kinase-Nluc reporter destabilization hit call (CDK10),kinase-Nluc reporter destabilization hit call (CDK2),kinase-Nluc reporter destabilization hit call (CDK3),kinase-Nluc reporter destabilization hit call (CDK4),kinase-Nluc reporter destabilization hit call (CDK5),kinase-Nluc reporter destabilization hit call (CDK6)
CC(C)c1cc2c(c(O)c1O)[C@@]13CCCC(C)(C)[C@@H]1C[C@@H]2OC3=O [Carnosol] (2.5 µM),inactive: 0,inactive: 0,inactive: 0,inactive: 0,inactive: 0,inactive: 0,inactive: 0,inactive: 0,inactive: 0,inactive: 0,inactive: 0,inactive: 0,inactive: 0,inactive: 0,inactive: 0,inactive: 0,inactive: 0,inactive: 0,inactive: 0,inactive: 0
Cc1n[nH]c2ncc(C(=O)N3CCC[C@H]3c3ccc(Cl)cc3)cc12 (10 µM),inactive: 0,inactive: 0,inactive: 0,inactive: 0,inactive: 0,inactive: 0,inactive: 0,inactive: 0,inactive: 0,inactive: 0,inactive: 0,inactive: 0,inactive: 0,inactive: 0,inactive: 0,inactive: 0,inactive: 0,inactive: 0,inactive: 0,inactive: 0
COc1cccc(-c2cc(=O)c3ccccc3o2)c1N (10 µM),inactive: 0,inactive: 0,inactive: 0,inactive: 0,inactive: 0,inactive: 0,inactive: 0,inactive: 0,inactive: 0,inactive: 0,inactive: 0,inactive: 0,inactive: 0,inactive: 0,inactive: 0,inactive: 0,inactive: 0,inactive: 0,inactive: 0,inactive: 0
CCc1cc(Nc2nccc(-c3c(-c4ccc(OC)c(C(=O)Nc5c(F)cccc5F)c4)nc4ccccn34)n2)c(OC)cc1N1CCC(N2CCN(S(C)(=O)=O)CC2)CC1 (2.5 µM),inactive: 0,inactive: 0,inactive: 0,inactive: 0,inactive: 0,inactive: 0,inactive: 0,inactive: 0,inactive: 0,inactive: 0,inactive: 0,inactive: 0,inactive: 0,inactive: 0,inactive: 0,inactive: 0,inactive: 0,inactive: 0,inactive: 0,inactive: 0
O=c1cc(N2CCOCC2)oc2c(-c3cccc4c3sc3ccccc34)cccc12 (10 µM),inactive: 0,inactive: 0,inactive: 0,inactive: 0,inactive: 0,inactive: 0,inactive: 0,inactive: 0,inactive: 0,inactive: 0,inactive: 0,inactive: 0,inactive: 0,inactive: 0,inactive: 0,inactive: 0,inactive: 0,inactive: 0,inactive: 0,inactive: 0
Nc1ccc(O)c(C(=O)O)c1 [5-Aminosalicylic Acid] (10 µM),inactive: 0,inactive: 0,inactive: 0,inactive: 0,inactive: 0,inactive: 0,inactive: 0,inactive: 0,inactive: 0,inactive: 0,inactive: 0,inactive: 0,inactive: 0,inactive: 0,inactive: 0,inactive: 0,inactive: 0,inactive: 0,inactive: 0,inactive: 0
CC/C(=C(\c1ccccc1)c1ccc(OCCNC)cc1)c1ccccc1 [N-Desmethyltamoxifen (hydrochloride)] (2.5 µM),inactive: 0,inactive: 0,inactive: 0,inactive: 0,inactive: 0,inactive: 0,inactive: 0,inactive: 0,inactive: 0,inactive: 0,inactive: 0,inactive: 0,inactive: 0,inactive: 0,inactive: 0,inactive: 0,inactive: 0,inactive: 0,inactive: 0,inactive: 0
O=C1NC(=O)C(Cc2c[nH]c3c(Cl)cccc23)N1 (centres undefined) [Necroptosis-IN-1] (10 µM),inactive: 0,inactive: 0,inactive: 0,inactive: 0,inactive: 0,inactive: 0,inactive: 0,inactive: 0,inactive: 0,inactive: 0,inactive: 0,inactive: 0,inactive: 0,inactive: 0,inactive: 0,inactive: 0,inactive: 0,inactive: 0,inactive: 0,inactive: 0
CCOc1cc(N2CCC(O)CC2)ccc1Nc1ncc2c(n1)N(C1CCCC1)CCC(=O)N2C (2.5 µM),inactive: 0,inactive: 0,inactive: 0,inactive: 0,inactive: 0,inactive: 0,inactive: 0,inactive: 0,inactive: 0,inactive: 0,inactive: 0,inactive: 0,inactive: 0,inactive: 0,inactive: 0,inactive: 0,inactive: 0,inactive: 0,inactive: 0,inactive: 0
CC1(C)C=Cc2c(ccc(C(=O)/C=C/c3ccc(O)cc3)c2O)O1 [4-Hydroxylonchocarpin] (10 µM),inactive: 0,inactive: 0,inactive: 0,inactive: 0,inactive: 0,inactive: 0,inactive: 0,active: 1,inactive: 0,inactive: 0,inactive: 0,inactive: 0,inactive: 0,inactive: 0,inactive: 0,inactive: 0,inactive: 0,inactive: 0,inactive: 0,inactive: 0
Nc1nccc(Oc2ccc3c(C(=O)Nc4cccc(C(F)(F)F)c4)cccc3c2)n1 (10 µM),inactive: 0,inactive: 0,inactive: 0,inactive: 0,inactive: 0,inactive: 0,inactive: 0,inactive: 0,inactive: 0,inactive: 0,inactive: 0,inactive: 0,inactive: 0,inactive: 0,inactive: 0,inactive: 0,inactive: 0,inactive: 0,inactive: 0,inactive: 0
Nc1[nH]nc2nnc(-c3c(-c4ccccc4)nn4ccccc34)cc12 (10 µM),inactive: 0,inactive: 0,inactive: 0,inactive: 0,inactive: 0,inactive: 0,inactive: 0,inactive: 0,inactive: 0,inactive: 0,inactive: 0,inactive: 0,inactive: 0,inactive: 0,inactive: 0,inactive: 0,inactive: 0,inactive: 0,inactive: 0,inactive: 0
COC(=O)N1CCN(C2CCC(Nc3nc(Nc4cnn(C)c4)nc4ccc(CC#N)nc34)CC2)CC1 (centres undefined) (10 µM),inactive: 0,inactive: 0,inactive: 0,inactive: 0,inactive: 0,inactive: 0,inactive: 0,inactive: 0,inactive: 0,inactive: 0,inactive: 0,inactive: 0,inactive: 0,inactive: 0,inactive: 0,inactive: 0,inactive: 0,inactive: 0,inactive: 0,inactive: 0
CCc1c(C(=O)NNC(=O)[C@H](O)c2cc(F)cc(F)c2)ccc(O)c1C (10 µM),inactive: 0,inactive: 0,inactive: 0,inactive: 0,inactive: 0,inactive: 0,inactive: 0,inactive: 0,inactive: 0,inactive: 0,inactive: 0,inactive: 0,inactive: 0,inactive: 0,inactive: 0,inactive: 0,inactive: 0,,inactive: 0,inactive: 0
COc1ccc2cc1Oc1ccc(cc1)C[C@H]1c3cc(c(OC)cc3CCN1C)Oc1c(O)c(OC)cc3c1[C@H](C2)N(C)CC3 [Fangchinoline] (2.5 µM),inactive: 0,inactive: 0,inactive: 0,inactive: 0,inactive: 0,inactive: 0,inactive: 0,inactive: 0,inactive: 0,inactive: 0,inactive: 0,inactive: 0,inactive: 0,inactive: 0,inactive: 0,inactive: 0,inactive: 0,inactive: 0,inactive: 0,inactive: 0
COc1ccc(CN2CCC(c3ccc4nc(C(=O)N5CCN(Cc6ccc(C(F)(F)F)cc6)CC5)[nH]c4c3)CC2)cn1 (2.5 µM),inactive: 0,inactive: 0,inactive: 0,inactive: 0,inactive: 0,inactive: 0,inactive: 0,inactive: 0,inactive: 0,inactive: 0,inactive: 0,inactive: 0,inactive: 0,inactive: 0,inactive: 0,inactive: 0,inactive: 0,inactive: 0,inactive: 0,inactive: 0
O=C(C#Cc1ccccc1)c1cccc([N+](=O)[O-])c1 (10 µM),inactive: 0,inactive: 0,inactive: 0,inactive: 0,inactive: 0,inactive: 0,inactive: 0,inactive: 0,inactive: 0,inactive: 0,inactive: 0,inactive: 0,inactive: 0,inactive: 0,inactive: 0,inactive: 0,inactive: 0,inactive: 0,inactive: 0,inactive: 0

# Taken from above:
# For kinase-Nluc reporter destabilization hit call (BMX), `Nc1ccc(O)c(C(=O)O)c1` [5-Aminosalicylic Acid] (10 µM) has the entry inactive: 0
# For kinase-Nluc reporter destabilization hit call (AKT1), `CCc1c(C(=O)NNC(=O)[C@H](O)c2cc(F)cc(F)c2)ccc(O)c1C` (10 µM) has the entry inactive: 0
